These are yes or no findings as the source states them, for the method shown. In cells and extracts the contact can be indirect. A result given as binding can be weak or reduced; the word gives no strength. For some assays here: Sequences can lack the tags named with a protein.

Results on 2 molecules are retold here after patent US20070099830A1.

The target of assay [1] is adenine nucleotide transporter (endogenous, MIN6 cells) (mouse). Kind of assay: co-immunoprecipitation of endogenous proteins from MIN6 cells, western blot. Background: Immunoblotting shows a protein as a band on a membrane.
The target in assay [2] is adenine nucleotide transporter (endogenous, 293T cells) (human). As to the kind of experiment: co-immunoprecipitation from 293T cells with α-FLAG, western blot.

B1: mouse Sirt4 (endogenous, MIN6 cells) (enzyme)
chain: SGLFVPPSPPLDPEKIKELQRFISLSKKLLVMTGAGISTESSIPDYRSEKVGLYARTDRRPIQHIDFVRSAPVRQRYWARNFVGWPQFSSHQPNPAHWALSNWERLGKLHWLVTQNVDALHSKAGSQRLTELHGCMHRVLCLNCGEQTARRVLQERFQALNPSWSAEAQGVAPDGDVFLTEEQVRSFQVPCCDRCGGPLKPDVVFFGDTVNPDKVDFVHRRVKEADSLLVVGSSLQVYSGYRFILTAREQKLPIAILNIGPTRSDDLACLKLDSRCGELLPLIDPRRQHSDVQRLEMNFPLSSAAQDP
As for B1, the binding entry in assay [1] was “binds”.

B2: human Sirt4 with a C-terminal FLAG (enzyme, not shown: small tags and cut ends)
chain: IGLFVPASPPLDPEKVKELQRFITLSKRLLVMTGAGISTESGIPDYRSEKVGLYARTDRRPIQHGDFVRSAPIRQRYWARNFVGWPQFSSHQPNPAHWALSTWEKLGKLYWLVTQNVDALHTKAGSRRLTELHGCMDRVLCLDCGEQTPRGVLQERFQVLNPTWSAEAHGLAPDGDVFLSEEQVRSFQVPTCVQCGGHLKPDVVFFGDTVNPDKVDFVHKRVKEADSLLVVGSSLQVYSGYRFILTAWEKKLPIAILNIGPTRSDDLACLKLNSRCGELLPLIDPC
Turning to B2, the binding entry in assay [2] is “binds”.
